Structures can show the parent of a compound that is named as a salt. The list shows a part of the results. Hit calls seldom repeat between salt and free forms of one compound.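 Kinases were expressed as nanoluciferase fusions in K562 cells and luminescence was read every 4 h between 2 and 18 h as percent of control, DMSO set to 100% and a positive control to 0%. A time point counts as decreased when the signal drops significantly (2 sigma). The hit call is the authors' own, does not follow from the count of time points alone, and its rule is not shown.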
How the values were obtained:
Test in all cases: kinase-Nluc reporter destabilization hit call (1 = scored as downregulated) (binary); higher = compound decreases kinase abundance
Settings in all cases: K562, 2-18 h
CDK7 = CDK7 (UniProt P50613)
CDK9 = CDK9 (UniProt P50750)
CHEK2 = CHEK2 (UniProt O96017)
CSF1R = CSF1R (UniProt P07333)
CSK = CSK (UniProt P41240)
CSNK1A1 = CSNK1A1 (UniProt P48729)
CSNK1D = CSNK1D (UniProt P48730)
DDR1 = DDR1 (UniProt Q08345)
DYRK1B = DYRK1B (UniProt Q9Y463)
DYRK2 = DYRK2 (UniProt Q92630)

Amino acid sequences for entries named in this document (tags omitted). A change or cut given only in a name is not applied to a line headed by its entry.
UniProt P50613: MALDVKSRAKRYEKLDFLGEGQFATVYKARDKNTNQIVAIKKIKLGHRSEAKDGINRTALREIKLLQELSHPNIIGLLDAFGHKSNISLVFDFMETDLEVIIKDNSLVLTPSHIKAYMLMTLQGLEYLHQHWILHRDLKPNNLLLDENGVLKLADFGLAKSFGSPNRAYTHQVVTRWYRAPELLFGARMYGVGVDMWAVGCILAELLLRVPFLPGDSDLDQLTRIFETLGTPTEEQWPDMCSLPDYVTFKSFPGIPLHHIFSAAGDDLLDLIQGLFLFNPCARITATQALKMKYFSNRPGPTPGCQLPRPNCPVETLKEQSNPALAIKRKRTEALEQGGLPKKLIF
UniProt P50750, whole entry: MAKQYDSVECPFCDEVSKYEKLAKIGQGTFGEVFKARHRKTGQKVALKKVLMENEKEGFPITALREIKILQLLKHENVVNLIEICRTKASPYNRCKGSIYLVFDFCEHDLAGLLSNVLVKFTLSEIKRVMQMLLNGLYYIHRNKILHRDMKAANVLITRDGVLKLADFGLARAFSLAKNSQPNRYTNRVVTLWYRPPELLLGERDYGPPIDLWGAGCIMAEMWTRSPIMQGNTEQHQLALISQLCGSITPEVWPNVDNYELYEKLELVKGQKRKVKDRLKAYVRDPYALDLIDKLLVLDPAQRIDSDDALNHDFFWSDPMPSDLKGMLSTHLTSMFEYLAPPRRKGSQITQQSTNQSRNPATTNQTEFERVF
UniProt O96017, whole entry: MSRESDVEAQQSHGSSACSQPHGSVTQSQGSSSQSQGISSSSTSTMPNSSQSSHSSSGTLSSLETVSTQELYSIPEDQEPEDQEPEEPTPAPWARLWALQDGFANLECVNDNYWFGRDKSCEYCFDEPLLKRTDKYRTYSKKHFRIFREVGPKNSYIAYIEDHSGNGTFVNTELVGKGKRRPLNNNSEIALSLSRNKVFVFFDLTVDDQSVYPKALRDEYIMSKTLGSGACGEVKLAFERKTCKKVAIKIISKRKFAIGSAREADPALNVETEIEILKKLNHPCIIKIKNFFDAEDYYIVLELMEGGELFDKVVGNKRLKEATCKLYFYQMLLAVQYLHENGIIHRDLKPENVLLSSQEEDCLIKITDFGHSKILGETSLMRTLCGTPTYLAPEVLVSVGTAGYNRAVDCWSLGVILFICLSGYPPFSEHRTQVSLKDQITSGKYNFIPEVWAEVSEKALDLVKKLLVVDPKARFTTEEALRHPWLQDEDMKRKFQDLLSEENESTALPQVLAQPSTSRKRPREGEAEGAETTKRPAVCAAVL
UniProt P07333, whole entry: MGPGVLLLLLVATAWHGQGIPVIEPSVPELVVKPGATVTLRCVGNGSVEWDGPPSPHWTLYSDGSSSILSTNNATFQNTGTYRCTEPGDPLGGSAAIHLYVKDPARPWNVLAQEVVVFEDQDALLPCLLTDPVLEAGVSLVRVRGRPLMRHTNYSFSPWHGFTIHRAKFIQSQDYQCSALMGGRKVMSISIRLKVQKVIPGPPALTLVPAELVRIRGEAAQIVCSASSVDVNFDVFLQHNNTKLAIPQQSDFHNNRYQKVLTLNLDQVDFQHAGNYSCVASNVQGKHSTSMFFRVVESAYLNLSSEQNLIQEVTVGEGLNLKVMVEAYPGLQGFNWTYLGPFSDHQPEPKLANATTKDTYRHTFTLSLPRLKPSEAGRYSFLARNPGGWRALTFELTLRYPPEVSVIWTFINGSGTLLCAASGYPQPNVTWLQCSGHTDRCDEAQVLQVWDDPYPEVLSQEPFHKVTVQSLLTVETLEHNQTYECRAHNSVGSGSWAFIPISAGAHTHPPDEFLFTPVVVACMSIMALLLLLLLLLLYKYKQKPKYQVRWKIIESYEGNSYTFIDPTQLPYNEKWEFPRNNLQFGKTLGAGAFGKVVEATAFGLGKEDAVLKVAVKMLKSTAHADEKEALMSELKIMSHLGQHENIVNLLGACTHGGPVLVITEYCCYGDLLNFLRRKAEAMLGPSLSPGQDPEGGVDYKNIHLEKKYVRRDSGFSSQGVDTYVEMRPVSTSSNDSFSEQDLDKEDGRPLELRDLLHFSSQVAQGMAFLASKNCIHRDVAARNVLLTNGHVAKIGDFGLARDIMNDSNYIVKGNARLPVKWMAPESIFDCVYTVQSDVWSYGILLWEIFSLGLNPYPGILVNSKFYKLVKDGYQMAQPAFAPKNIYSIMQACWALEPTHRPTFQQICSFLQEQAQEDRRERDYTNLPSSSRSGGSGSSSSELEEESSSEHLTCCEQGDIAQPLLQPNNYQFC
UniProt P41240: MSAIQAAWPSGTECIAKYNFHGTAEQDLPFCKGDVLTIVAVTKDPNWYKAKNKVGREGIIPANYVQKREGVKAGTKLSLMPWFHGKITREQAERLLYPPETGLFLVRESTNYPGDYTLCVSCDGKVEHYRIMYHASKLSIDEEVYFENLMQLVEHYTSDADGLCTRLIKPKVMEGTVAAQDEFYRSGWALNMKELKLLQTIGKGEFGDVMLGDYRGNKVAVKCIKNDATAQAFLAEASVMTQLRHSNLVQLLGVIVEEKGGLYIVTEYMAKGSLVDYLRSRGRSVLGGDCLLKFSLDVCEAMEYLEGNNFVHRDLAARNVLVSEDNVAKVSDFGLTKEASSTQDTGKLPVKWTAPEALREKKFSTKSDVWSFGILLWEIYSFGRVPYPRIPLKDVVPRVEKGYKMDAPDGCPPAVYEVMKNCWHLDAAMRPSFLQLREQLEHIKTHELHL
UniProt P48729: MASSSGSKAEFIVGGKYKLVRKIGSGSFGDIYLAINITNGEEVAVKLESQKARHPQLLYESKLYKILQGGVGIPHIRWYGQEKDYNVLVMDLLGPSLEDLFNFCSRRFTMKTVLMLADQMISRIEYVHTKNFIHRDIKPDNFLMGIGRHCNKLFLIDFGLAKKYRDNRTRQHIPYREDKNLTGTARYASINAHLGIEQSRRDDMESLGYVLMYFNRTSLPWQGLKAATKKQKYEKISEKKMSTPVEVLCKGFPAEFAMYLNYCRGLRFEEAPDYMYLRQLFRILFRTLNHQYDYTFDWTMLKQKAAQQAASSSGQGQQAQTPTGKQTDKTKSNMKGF
UniProt P48730: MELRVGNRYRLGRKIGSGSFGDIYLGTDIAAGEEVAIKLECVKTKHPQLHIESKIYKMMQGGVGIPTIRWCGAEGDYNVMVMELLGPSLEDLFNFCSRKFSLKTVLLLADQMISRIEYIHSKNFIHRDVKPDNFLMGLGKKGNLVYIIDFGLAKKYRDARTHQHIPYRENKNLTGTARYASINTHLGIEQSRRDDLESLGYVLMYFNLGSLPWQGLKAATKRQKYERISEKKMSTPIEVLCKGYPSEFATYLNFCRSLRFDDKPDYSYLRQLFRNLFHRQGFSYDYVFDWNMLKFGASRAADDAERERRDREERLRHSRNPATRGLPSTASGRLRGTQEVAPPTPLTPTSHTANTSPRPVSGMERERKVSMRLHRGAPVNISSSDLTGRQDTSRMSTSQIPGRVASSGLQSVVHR
UniProt Q08345: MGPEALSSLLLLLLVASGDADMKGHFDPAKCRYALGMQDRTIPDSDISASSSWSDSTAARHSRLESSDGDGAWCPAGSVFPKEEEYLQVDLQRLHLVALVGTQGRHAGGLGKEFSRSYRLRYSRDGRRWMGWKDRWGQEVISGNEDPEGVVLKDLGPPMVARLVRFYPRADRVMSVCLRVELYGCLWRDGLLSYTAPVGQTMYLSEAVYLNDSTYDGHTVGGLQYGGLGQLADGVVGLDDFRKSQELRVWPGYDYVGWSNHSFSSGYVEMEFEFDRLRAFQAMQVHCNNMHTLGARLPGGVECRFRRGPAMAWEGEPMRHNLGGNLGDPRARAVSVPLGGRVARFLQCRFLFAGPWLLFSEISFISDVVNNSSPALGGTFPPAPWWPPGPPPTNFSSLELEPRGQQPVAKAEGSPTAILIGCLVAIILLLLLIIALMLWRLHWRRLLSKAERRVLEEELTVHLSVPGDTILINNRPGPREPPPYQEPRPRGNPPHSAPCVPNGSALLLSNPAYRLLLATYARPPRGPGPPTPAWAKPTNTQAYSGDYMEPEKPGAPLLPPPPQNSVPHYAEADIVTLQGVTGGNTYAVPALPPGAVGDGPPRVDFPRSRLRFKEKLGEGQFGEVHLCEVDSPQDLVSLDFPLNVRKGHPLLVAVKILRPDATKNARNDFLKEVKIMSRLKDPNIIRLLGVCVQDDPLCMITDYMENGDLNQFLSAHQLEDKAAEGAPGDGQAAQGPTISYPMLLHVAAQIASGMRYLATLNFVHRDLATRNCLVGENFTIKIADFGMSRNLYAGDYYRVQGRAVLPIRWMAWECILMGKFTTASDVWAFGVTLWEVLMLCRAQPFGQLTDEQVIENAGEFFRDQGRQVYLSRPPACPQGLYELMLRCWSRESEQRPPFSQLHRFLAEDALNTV
UniProt Q9Y463, whole entry, looked up: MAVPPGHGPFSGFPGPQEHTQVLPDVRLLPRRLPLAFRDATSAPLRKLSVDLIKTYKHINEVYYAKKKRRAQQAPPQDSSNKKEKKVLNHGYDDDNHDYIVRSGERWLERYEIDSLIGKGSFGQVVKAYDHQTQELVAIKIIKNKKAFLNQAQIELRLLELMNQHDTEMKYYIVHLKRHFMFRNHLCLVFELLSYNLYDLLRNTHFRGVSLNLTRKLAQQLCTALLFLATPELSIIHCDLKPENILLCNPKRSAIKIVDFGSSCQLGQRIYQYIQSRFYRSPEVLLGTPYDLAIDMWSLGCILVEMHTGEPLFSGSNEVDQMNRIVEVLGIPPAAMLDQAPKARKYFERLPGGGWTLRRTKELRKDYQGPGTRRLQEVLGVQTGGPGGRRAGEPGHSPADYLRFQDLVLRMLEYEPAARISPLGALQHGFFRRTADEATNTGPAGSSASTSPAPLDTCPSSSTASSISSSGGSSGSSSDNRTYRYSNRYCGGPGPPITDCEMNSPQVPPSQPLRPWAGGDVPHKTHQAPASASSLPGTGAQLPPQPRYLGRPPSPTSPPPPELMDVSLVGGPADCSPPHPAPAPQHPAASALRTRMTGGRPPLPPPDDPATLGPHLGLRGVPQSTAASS
UniProt Q92630: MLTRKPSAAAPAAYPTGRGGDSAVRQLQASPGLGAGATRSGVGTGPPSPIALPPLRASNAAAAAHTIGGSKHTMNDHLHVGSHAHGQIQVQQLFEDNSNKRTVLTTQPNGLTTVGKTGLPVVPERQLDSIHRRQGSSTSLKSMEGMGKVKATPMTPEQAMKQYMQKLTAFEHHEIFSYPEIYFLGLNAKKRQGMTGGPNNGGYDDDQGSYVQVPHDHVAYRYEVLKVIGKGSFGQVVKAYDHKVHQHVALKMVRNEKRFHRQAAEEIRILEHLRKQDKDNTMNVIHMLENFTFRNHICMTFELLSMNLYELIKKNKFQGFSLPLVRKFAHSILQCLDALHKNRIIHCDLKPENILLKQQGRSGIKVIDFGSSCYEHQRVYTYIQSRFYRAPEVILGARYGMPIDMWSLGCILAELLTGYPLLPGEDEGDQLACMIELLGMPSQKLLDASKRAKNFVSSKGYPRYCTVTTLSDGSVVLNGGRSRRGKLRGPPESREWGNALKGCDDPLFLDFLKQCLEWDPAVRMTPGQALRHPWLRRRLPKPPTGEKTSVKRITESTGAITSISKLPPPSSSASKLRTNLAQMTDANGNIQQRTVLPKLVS

Measured: kinase-Nluc reporter destabilization hit call

O=C1Nc2ccccc2/C1=C/c1ccccn1 [GSK-3β inhibitor 1]
inactive: CDK7; 10 µM 0 | CDK9; 10 µM 0 | CHEK2; 10 µM 0 | CSF1R; 10 µM 0 | CSK; 10 µM 0 | CSNK1A1; 10 µM 0 | CSNK1D; 10 µM 0 | DDR1; 10 µM 0 | DYRK1B; 10 µM 0 | DYRK2; 10 µM 0

CCS(=O)(=O)N1CC(CC#N)(n2cc(-c3ncnc4[nH]ccc34)cn2)C1 [Baricitinib (phosphate)]
inactive: CDK7; 10 µM 0 | CDK9; 10 µM 0 | CHEK2; 10 µM 0 | CSF1R; 10 µM 0 | CSK; 10 µM 0 | CSNK1A1; 10 µM 0 | CSNK1D; 10 µM 0 | DDR1; 10 µM 0 | DYRK1B; 10 µM 0 | DYRK2; 10 µM 0

CCCC(=O)Nc1ncnc2c1ncn2[C@@H]1O[C@@H]2COP(=O)(O)O[C@H]2[C@H]1OC(=O)CCC [Bucladesine (sodium)]
inactive: CDK7; 10 µM 0 | CDK9; 10 µM 0 | CHEK2; 10 µM 0 | CSF1R; 10 µM 0 | CSK; 10 µM 0 | CSNK1A1; 10 µM 0 | CSNK1D; 10 µM 0 | DDR1; 10 µM 0 | DYRK1B; 10 µM 0 | DYRK2; 10 µM 0

Clc1ccc(C2(c3ccc(-c4cn[nH]c4)cc3)CCNCC2)cc1
inactive: CDK7; 10 µM 0 | CDK9; 10 µM 0 | CHEK2; 10 µM 0 | CSF1R; 10 µM 0 | CSK; 10 µM 0 | CSNK1A1; 10 µM 0 | CSNK1D; 10 µM 0 | DDR1; 10 µM 0 | DYRK1B; 10 µM 0 | DYRK2; 10 µM 0

CN(C)C(=N)NC(=N)N [Metformin (hydrochloride)]
inactive: CDK7; 10 µM 0 | CDK9; 10 µM 0 | CHEK2; 10 µM 0 | CSF1R; 10 µM 0 | CSK; 10 µM 0 | CSNK1A1; 10 µM 0 | CSNK1D; 10 µM 0 | DDR1; 10 µM 0 | DYRK1B; 10 µM 0 | DYRK2; 10 µM 0

CCc1nc(C(N)=O)c(Nc2ccc(N3CCC(N4CCN(C)CC4)CC3)c(OC)c2)nc1NC1CCOCC1 [Gilteritinib]
inactive: CDK7; 2 µM 0 | CDK9; 2 µM 0 | CHEK2; 2 µM 0 | CSF1R; 2 µM 0 | CSK; 2 µM 0 | CSNK1A1; 2 µM 0 | CSNK1D; 2 µM 0 | DDR1; 2 µM 0 | DYRK1B; 2 µM 0 | DYRK2; 2 µM 0

OCCn1cc(-c2cnc3nnn(Cc4ccc5ncccc5c4)c3n2)cn1
inactive: CDK7; 10 µM 0 | CDK9; 10 µM 0 | CHEK2; 10 µM 0 | CSF1R; 10 µM 0 | CSK; 10 µM 0 | CSNK1A1; 10 µM 0 | CSNK1D; 10 µM 0 | DDR1; 10 µM 0 | DYRK1B; 10 µM 0 | DYRK2; 10 µM 0

Nc1ncnc2c1c(-c1ccc(Oc3ccccc3)cc1)nn2[C@@H]1CCCNC1 [IBT6A (hydrochloride)]
inactive: CDK7; 2.5 µM 0 | CDK9; 2.5 µM 0 | CHEK2; 2.5 µM 0 | CSF1R; 2.5 µM 0 | CSK; 2.5 µM 0 | CSNK1A1; 2.5 µM 0 | CSNK1D; 2.5 µM 0 | DDR1; 2.5 µM 0 | DYRK1B; 2.5 µM 0 | DYRK2; 2.5 µM 0

C=CC(=O)Nc1cc2c(Nc3ccc(F)c(Cl)c3)ncnc2cc1C#CC(C)(C)N1CCN(C)CC1
inactive: CDK7; 2.5 µM 0 | CDK9; 2.5 µM 0 | CHEK2; 2.5 µM 0 | CSF1R; 2.5 µM 0 | CSK; 2.5 µM 0 | CSNK1A1; 2.5 µM 0 | CSNK1D; 2.5 µM 0 | DYRK1B; 2.5 µM 0
active: DDR1; 2.5 µM 1 | DYRK2; 2.5 µM 1

Cc1cccc(-c2[nH]c(CNc3ccccc3F)nc2-c2ccc3ncnn3c2)n1 [Vactosertib (Hydrochloride)]
inactive: CDK7; 2.5 µM 0 | CDK9; 2.5 µM 0 | CHEK2; 2.5 µM 0 | CSF1R; 2.5 µM 0 | CSK; 2.5 µM 0 | CSNK1A1; 2.5 µM 0 | CSNK1D; 2.5 µM 0 | DDR1; 2.5 µM 0 | DYRK1B; 2.5 µM 0 | DYRK2; 2.5 µM 0

Nc1ncnc2c1c(-c1ccc(Oc3ccccc3)cc1)nn2[C@@H]1CCCNC1
inactive: CDK7; 2.5 µM 0 | CDK9; 2.5 µM 0 | CHEK2; 2.5 µM 0 | CSF1R; 2.5 µM 0 | CSK; 2.5 µM 0 | CSNK1A1; 2.5 µM 0 | CSNK1D; 2.5 µM 0 | DDR1; 2.5 µM 0 | DYRK1B; 2.5 µM 0 | DYRK2; 2.5 µM 0

COc1ccc(S(=O)(=O)Nc2ccccc2CN(C)C/C=C/c2ccc(Cl)cc2)cc1 [KN-92 (hydrochloride)]
inactive: CDK7; 2.5 µM 0 | CDK9; 2.5 µM 0 | CHEK2; 2.5 µM 0 | CSF1R; 2.5 µM 0 | CSK; 2.5 µM 0 | CSNK1A1; 2.5 µM 0 | CSNK1D; 2.5 µM 0 | DDR1; 2.5 µM 0 | DYRK1B; 2.5 µM 0 | DYRK2; 2.5 µM 0

2 records picked at random from those above, as already listed:
C=CC(=O)Nc1cc2c(Nc3ccc(F)c(Cl)c3)ncnc2cc1C#CC(C)(C)N1CCN(C)CC1
inactive: CDK7; 2.5 µM 0 | CDK9; 2.5 µM 0 | CHEK2; 2.5 µM 0 | CSF1R; 2.5 µM 0 | CSK; 2.5 µM 0 | CSNK1A1; 2.5 µM 0 | CSNK1D; 2.5 µM 0 | DYRK1B; 2.5 µM 0
active: DDR1; 2.5 µM 1 | DYRK2; 2.5 µM 1

Nc1ncnc2c1c(-c1ccc(Oc3ccccc3)cc1)nn2[C@@H]1CCCNC1
inactive: CDK7; 2.5 µM 0 | CDK9; 2.5 µM 0 | CHEK2; 2.5 µM 0 | CSF1R; 2.5 µM 0 | CSK; 2.5 µM 0 | CSNK1A1; 2.5 µM 0 | CSNK1D; 2.5 µM 0 | DDR1; 2.5 µM 0 | DYRK1B; 2.5 µM 0 | DYRK2; 2.5 µM 0

The list continues:

O=C(O)c1ccc2c(c1)nc(Nc1cccc(Cl)c1)c1ccncc12 [Silmitasertib]
inactive: CDK7; 10 µM 0 | CHEK2; 10 µM 0 | CSF1R; 10 µM 0 | CSK; 10 µM 0 | CSNK1A1; 10 µM 0 | CSNK1D; 10 µM 0 | DDR1; 10 µM 0 | DYRK1B; 10 µM 0 | DYRK2; 10 µM 0
active: CDK9; 10 µM 1

Oc1cccc(-c2nc(N3CCOCC3)c3oc4ncccc4c3n2)c1
inactive: CDK7; 10 µM 0 | CDK9; 10 µM 0 | CHEK2; 10 µM 0 | CSF1R; 10 µM 0 | CSK; 10 µM 0 | CSNK1A1; 10 µM 0 | CSNK1D; 10 µM 0 | DDR1; 10 µM 0 | DYRK1B; 10 µM 0 | DYRK2; 10 µM 0

C#Cc1cccc(Nc2ncnc3cc4c(cc23)OCCOCCOCCO4)c1 [Icotinib]
inactive: CDK7; 10 µM 0 | CDK9; 10 µM 0 | CHEK2; 10 µM 0 | CSF1R; 10 µM 0 | CSK; 10 µM 0 | CSNK1A1; 10 µM 0 | CSNK1D; 10 µM 0 | DDR1; 10 µM 0 | DYRK1B; 10 µM 0 | DYRK2; 10 µM 0

Reference: the supplement of paper PMC12823440, “Inhibitors supercharge kinase turnover through native proteolytic circuits” (Nature, 2025)
